No constants are given. Whether binding was seen depends on the method and setting. Binding seen in cells or lysates may run through a third protein. Binding can be weak; no strength is given. Sequences can lack the tags named with a protein.
Target: T1, GFP-ALDH1A3 full length (mouse) (UniProt Q9JHW9)
T1 sequence: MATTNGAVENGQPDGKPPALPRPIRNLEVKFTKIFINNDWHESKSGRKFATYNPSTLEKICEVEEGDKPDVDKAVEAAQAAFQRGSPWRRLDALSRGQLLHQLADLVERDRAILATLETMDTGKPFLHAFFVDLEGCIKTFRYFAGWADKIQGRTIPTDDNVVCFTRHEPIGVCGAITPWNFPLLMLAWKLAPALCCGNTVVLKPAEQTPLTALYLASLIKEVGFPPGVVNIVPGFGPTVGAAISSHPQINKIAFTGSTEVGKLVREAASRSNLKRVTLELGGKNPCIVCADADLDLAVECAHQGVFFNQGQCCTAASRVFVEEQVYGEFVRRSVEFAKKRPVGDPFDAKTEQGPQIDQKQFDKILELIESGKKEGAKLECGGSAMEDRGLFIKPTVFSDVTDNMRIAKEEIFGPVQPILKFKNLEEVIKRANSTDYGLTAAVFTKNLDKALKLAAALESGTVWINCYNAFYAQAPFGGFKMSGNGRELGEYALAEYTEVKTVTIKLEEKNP
Assay: co-IP; HEK293 cells co-transfected with GFP-ALDH1A3 full length (or GFP as control), Flag-ALDH1A3 full length and 2.5 or 5 µg Flag-ALDH1A3△ plasmid; lysates immunoprecipitated with GFP antibody; blots with anti-GFP or anti-FLAG

- binding: binds
Substance: Flag-ALDH1A3△ (mouse)
